Results are given in words; binding and its absence hold for the method and conditions named. In cells and extracts the contact can be indirect. A yes stands for co-enrichment or nearness to the bait. Other partners may have been found. No binding means not detected with the bait.

Chains of the proteins cited; added tags and fusions are not shown.
UniProt P49336: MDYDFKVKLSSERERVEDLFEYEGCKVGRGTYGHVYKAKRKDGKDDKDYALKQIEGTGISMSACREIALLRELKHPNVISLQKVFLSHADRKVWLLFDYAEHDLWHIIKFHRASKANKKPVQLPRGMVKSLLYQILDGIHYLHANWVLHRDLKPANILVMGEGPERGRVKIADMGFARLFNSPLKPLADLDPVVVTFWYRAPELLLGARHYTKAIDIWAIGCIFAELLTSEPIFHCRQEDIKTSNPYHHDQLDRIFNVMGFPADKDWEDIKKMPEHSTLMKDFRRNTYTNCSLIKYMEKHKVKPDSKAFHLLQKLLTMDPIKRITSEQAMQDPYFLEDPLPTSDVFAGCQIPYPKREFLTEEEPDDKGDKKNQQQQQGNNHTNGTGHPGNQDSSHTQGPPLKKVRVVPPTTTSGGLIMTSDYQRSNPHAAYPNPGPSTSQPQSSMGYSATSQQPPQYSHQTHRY
UniProt Q86YW9: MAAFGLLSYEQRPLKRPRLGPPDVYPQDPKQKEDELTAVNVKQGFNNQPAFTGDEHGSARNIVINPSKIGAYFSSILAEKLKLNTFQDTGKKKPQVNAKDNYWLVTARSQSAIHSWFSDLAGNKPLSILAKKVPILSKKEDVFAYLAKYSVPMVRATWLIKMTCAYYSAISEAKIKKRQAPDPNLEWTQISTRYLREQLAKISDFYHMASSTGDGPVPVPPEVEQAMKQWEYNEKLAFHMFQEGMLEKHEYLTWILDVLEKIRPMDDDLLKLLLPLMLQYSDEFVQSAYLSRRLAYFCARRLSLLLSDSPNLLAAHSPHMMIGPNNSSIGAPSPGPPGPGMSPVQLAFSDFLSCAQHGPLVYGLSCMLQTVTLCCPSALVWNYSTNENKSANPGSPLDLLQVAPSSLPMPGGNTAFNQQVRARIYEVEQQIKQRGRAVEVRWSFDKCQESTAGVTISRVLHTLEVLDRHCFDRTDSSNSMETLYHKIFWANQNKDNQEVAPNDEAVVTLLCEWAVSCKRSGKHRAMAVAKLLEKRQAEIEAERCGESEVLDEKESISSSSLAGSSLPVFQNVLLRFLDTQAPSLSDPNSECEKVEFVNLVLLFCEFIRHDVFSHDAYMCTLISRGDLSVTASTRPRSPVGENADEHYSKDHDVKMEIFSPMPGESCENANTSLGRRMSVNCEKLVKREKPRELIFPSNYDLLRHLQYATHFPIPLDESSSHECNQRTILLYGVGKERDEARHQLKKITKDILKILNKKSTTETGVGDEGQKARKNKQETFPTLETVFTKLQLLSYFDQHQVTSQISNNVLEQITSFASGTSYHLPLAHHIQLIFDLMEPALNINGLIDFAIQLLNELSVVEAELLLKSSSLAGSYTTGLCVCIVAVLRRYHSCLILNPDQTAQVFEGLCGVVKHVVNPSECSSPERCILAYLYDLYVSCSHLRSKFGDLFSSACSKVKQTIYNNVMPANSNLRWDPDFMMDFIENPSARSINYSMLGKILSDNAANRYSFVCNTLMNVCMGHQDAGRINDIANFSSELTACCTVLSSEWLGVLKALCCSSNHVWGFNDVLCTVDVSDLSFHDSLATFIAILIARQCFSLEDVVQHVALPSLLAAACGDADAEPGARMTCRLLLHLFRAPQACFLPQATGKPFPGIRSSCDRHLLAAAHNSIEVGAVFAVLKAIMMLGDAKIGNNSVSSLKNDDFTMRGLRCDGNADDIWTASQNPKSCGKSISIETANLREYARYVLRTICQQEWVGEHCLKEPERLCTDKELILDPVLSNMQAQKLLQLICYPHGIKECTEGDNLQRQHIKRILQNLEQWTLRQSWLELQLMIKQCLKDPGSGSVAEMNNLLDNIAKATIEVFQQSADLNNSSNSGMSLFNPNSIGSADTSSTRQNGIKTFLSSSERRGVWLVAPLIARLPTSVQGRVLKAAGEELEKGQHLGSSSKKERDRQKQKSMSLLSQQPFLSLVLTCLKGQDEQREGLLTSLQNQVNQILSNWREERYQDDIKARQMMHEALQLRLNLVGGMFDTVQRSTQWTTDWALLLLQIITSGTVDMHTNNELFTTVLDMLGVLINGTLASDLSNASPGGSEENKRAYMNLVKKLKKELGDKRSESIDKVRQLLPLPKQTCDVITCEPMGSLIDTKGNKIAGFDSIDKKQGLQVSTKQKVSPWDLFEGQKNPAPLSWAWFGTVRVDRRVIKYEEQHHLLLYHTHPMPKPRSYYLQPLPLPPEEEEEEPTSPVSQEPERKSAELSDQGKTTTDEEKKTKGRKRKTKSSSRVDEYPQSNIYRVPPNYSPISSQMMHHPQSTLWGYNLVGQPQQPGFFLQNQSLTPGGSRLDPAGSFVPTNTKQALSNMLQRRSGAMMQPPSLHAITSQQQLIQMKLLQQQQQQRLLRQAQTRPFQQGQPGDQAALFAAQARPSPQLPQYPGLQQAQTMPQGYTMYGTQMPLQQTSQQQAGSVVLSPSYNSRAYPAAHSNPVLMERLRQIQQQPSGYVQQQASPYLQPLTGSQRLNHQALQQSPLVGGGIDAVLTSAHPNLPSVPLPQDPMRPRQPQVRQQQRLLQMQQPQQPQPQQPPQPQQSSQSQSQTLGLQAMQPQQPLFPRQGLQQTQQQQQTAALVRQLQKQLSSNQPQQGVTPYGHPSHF
UniProt Q71F56: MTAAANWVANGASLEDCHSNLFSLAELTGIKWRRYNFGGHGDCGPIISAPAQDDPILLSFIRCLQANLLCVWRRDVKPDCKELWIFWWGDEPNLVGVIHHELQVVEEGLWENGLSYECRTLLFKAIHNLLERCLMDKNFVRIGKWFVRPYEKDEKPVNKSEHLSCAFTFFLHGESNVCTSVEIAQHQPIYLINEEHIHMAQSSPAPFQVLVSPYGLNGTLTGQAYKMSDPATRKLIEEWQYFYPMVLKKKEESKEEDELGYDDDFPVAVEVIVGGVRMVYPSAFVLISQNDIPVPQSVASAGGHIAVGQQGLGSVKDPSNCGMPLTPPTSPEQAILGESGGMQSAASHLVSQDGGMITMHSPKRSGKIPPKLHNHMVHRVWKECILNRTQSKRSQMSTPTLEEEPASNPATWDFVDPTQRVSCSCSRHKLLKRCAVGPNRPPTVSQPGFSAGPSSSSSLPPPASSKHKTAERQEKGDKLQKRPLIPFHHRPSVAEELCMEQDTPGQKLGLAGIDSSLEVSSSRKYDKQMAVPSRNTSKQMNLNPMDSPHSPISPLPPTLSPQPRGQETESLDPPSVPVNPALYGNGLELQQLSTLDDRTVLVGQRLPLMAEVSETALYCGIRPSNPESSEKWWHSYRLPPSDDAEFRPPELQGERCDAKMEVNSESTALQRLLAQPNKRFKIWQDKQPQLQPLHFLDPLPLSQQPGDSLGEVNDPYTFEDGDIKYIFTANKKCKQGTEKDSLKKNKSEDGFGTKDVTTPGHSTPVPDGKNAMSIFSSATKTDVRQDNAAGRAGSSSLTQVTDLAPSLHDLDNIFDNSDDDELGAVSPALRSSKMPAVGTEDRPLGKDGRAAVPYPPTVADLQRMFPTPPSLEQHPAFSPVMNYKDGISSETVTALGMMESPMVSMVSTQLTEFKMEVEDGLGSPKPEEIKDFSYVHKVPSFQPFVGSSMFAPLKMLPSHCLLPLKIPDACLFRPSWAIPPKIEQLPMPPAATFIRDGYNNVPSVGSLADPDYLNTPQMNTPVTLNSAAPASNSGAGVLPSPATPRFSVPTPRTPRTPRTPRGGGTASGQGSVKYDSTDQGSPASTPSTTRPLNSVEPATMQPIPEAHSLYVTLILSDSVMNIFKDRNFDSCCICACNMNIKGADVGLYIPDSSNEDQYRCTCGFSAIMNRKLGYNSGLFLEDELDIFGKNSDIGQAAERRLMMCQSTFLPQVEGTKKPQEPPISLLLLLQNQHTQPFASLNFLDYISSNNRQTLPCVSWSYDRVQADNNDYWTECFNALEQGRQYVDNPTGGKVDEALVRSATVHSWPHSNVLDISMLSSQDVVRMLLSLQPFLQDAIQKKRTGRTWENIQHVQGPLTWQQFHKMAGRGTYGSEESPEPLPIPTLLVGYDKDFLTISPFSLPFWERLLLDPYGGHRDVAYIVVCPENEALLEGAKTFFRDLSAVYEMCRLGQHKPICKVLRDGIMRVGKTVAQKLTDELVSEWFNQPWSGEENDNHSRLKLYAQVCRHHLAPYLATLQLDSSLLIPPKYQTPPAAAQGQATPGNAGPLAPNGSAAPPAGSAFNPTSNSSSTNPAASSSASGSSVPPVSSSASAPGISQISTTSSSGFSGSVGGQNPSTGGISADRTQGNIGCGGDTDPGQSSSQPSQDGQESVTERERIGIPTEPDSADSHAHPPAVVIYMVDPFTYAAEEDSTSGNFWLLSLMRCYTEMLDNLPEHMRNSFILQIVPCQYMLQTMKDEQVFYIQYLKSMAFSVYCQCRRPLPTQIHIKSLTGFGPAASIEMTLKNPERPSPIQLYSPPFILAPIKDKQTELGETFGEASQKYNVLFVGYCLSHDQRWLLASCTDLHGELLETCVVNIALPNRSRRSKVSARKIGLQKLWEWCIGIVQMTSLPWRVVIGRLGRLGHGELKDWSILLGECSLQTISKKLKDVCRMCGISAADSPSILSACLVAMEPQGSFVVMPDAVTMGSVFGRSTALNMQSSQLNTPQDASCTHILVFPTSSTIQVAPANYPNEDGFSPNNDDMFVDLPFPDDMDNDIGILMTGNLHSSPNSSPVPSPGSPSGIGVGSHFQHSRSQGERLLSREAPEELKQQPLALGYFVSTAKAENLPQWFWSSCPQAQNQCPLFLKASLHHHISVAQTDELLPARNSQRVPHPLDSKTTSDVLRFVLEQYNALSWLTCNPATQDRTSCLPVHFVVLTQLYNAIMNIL
UniProt Q9BWU1: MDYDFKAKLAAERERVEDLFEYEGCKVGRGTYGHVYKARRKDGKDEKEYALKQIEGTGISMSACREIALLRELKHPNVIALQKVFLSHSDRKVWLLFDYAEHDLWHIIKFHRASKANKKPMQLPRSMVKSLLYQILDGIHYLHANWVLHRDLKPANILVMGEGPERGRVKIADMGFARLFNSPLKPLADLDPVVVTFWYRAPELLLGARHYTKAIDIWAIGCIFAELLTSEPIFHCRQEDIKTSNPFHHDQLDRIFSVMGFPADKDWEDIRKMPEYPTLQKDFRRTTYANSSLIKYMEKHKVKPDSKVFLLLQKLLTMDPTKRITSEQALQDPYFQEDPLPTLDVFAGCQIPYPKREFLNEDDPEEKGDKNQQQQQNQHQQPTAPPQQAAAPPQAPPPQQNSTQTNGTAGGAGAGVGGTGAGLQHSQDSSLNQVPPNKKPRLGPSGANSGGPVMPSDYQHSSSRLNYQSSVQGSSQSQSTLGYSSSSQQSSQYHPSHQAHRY

For the experiment, the target named is Flag-tagged CDK8 expressed in 293-F cells (human) (UniProt P49336). Nature of the experiment: affinity purification with mass spectrometry.
“MED12L (endogenous) (from UniProt Q86YW9 1-2145)”: the binding entry was “binds”.

“MED13L (endogenous) (from UniProt Q71F56 1-2210)”: the binding result was “binds”.

Regarding “CDK19 (endogenous) (from UniProt Q9BWU1 1-502) (enzyme)”, the binding entry is recorded as “no binding”.
